These are yes or no findings as the source states them, for the method shown. For some assays here: Binding seen in cells or lysates may run through a third protein. Some binding calls cover weakened binding; strength is not graded here. Tags and fused reporters may be left off the sequences shown.
T1: SKIP (yeast two-hybrid fusion) (UniProt Q8IWE5)
T1 sequence: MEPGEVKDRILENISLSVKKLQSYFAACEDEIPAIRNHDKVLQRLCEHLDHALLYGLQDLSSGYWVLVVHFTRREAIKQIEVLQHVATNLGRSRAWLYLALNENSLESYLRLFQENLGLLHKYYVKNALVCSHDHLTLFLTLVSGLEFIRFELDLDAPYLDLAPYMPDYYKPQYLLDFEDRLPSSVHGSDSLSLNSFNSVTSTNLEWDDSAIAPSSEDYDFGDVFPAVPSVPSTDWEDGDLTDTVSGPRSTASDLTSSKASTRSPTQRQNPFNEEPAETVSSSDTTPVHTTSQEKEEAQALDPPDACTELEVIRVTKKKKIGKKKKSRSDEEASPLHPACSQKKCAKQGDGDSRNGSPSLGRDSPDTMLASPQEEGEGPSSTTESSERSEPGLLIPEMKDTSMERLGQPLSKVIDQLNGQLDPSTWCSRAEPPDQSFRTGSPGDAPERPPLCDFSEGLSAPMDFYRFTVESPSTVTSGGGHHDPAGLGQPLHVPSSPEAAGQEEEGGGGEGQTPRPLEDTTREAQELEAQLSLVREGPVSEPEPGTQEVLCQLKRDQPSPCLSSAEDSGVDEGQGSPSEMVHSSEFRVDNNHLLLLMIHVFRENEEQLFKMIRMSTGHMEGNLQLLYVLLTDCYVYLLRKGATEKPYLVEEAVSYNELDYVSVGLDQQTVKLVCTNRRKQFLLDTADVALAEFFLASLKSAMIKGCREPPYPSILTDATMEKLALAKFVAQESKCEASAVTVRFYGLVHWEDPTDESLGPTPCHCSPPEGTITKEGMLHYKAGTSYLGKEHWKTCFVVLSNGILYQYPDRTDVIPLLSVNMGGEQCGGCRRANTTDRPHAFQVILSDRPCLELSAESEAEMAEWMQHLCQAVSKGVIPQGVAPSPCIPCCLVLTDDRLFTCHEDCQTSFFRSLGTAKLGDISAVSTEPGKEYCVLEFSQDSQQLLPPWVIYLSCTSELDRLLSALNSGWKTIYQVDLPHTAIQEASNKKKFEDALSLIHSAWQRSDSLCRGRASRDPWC

By UniProt entry, the sequences of proteins in these tests, tags left out.
UniProt Q9NVJ2: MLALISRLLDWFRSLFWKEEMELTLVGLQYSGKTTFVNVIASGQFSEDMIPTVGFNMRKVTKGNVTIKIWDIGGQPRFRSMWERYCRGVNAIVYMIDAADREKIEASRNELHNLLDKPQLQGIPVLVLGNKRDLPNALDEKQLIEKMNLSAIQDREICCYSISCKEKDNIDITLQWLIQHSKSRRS

T2: SKIP-NΔ300 (yeast two-hybrid fusion) (UniProt Q8IWE5)
T2 sequence: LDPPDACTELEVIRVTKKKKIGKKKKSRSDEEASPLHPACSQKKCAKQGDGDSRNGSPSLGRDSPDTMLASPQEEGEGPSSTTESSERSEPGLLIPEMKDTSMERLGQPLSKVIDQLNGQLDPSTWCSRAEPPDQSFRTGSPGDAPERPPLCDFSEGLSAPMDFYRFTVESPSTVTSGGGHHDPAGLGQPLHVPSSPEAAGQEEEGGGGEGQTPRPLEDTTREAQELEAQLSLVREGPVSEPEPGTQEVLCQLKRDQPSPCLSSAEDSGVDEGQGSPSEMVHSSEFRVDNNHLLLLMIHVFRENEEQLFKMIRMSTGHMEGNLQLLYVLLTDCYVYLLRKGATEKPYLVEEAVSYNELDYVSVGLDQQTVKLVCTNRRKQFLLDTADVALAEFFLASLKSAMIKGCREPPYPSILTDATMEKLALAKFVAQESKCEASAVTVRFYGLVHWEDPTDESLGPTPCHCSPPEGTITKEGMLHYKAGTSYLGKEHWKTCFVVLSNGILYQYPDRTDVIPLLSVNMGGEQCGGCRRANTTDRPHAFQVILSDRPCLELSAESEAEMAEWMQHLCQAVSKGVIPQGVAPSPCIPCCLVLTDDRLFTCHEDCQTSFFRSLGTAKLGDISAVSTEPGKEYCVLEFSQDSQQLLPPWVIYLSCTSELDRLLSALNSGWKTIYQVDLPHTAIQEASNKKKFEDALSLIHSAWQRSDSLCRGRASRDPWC

T3: Flag–SKIP wild-type (UniProt Q8IWE5)
T3 sequence: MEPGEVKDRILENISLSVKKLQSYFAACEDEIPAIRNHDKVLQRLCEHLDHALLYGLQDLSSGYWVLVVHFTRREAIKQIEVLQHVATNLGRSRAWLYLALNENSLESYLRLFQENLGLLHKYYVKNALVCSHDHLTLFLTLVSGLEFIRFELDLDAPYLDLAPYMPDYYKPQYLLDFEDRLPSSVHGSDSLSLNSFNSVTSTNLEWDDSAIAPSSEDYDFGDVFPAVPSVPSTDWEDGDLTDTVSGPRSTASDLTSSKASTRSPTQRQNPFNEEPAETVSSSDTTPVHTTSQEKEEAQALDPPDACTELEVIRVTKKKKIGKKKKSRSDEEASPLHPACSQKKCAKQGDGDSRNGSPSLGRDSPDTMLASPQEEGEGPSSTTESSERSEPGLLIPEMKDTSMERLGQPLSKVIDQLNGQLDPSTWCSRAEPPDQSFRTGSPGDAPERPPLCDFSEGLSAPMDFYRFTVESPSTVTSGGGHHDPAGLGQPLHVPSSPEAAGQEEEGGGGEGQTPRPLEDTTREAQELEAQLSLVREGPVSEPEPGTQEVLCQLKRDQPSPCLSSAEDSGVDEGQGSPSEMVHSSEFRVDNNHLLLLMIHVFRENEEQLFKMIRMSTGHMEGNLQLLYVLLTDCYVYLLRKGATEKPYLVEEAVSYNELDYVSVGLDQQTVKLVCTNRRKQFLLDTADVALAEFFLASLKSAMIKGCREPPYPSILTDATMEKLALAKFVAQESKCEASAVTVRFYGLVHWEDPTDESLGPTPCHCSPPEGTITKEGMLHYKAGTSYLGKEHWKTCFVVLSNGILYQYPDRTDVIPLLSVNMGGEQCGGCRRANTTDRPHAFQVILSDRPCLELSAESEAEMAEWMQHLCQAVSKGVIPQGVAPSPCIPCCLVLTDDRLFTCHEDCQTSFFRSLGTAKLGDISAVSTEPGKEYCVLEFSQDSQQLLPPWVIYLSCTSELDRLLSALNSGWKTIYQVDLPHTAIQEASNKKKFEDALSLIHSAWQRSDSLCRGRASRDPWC

T4: Flag–SKIP NΔ300 (UniProt Q8IWE5)
T4 sequence: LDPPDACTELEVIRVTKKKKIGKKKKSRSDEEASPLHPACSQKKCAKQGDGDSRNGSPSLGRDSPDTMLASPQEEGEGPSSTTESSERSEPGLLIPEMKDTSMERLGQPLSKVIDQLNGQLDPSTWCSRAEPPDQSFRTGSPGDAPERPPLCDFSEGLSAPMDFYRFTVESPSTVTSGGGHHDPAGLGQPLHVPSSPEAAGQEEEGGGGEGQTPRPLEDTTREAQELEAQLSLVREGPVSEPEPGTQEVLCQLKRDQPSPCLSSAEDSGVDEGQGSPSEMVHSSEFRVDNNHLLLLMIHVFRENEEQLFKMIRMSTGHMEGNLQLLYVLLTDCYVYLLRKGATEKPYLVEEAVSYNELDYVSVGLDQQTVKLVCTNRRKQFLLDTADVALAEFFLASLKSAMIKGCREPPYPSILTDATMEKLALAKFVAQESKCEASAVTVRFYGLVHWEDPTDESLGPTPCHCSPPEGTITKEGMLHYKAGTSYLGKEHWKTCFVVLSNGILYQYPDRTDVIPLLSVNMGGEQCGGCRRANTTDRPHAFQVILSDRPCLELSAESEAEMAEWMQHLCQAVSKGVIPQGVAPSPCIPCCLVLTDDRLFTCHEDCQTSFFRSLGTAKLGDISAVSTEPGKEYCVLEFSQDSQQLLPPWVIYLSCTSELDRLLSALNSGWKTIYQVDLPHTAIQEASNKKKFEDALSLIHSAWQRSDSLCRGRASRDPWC


What was measured:
[1] = target: T1, SKIP (yeast two-hybrid fusion); test: two-hybrid; S. cerevisiae AH109 co-transformants (pGBKT7 and pGADT7), grown at 30°C, replated on non-selection (+HIS) and selection (−HIS) plates
[2] = target: T2, SKIP-NΔ300 (yeast two-hybrid fusion); test: as above
[3] = target: Arl8b (yeast two-hybrid fusion, Arl8b-pGBKT7) (UniProt Q9NVJ2); test: as above
Flag–SKIP wild-type = target: T3, Flag–SKIP wild-type; test: co-IP; lysates of co-transfected HEK293T cells immunoprecipitated with anti-Flag antibodies, immunoblotted with HA, anti-Vps11 and anti-Vps33a antibodies
Flag–SKIP NΔ300 = target: T4, Flag–SKIP NΔ300; test: as above

Row | binding [1] | binding [2] | binding [3] | binding (Flag–SKIP wild-type) | binding (Flag–SKIP NΔ300) | Binder
1 | binds | binds | no binding |  |  | hVps39 (yeast two-hybrid fusion) (protein, UniProt Q96JC1 1-886) MHDAFEPVPILEKLPLQIDCLAAWEEWLLVGTKQGHLLLYRIRKDVVPADVASPESGSCNRFEVTLEKSNKNFSKKIQQIHVVSQFKILVSLLENNIYVHDLLTFQQITTVSKAKGASLFTCDLQHTETGEEVLRMCVAVKKKLQLYFWKDREFHELQGDFSVPDVPKSMAWCENSICVGFKRDYYLIRVDGKGSIKELFPTGKQLEPLVAPLADGKVAVGQDDLTVVLNEEGICTQKCALNWTDIPVAMEHQPPYIIAVLPRYVEIRTFEPRLLVQSIELQRPRFITSGGSNIIYVASNHFVWRLIPVPMATQIQQLLQDKQFELALQLAEMKDDSDSEKQQQIHHIKNLYAFNLFCQKRFDESMQVFAKLGTDPTHVMGLYPDLLPTDYRKQLQYPNPLPVLSGAELEKAHLALIDYLTQKRSQLVKKLNDSDHQSSTSPLMEGTPTIKSKKKLLQIIDTTLLKCYLHTNVALVAPLLRLENNHCHIEESEHVLKKAHKYSELIILYEKKGLHEKALQVLVDQSKKANSPLKGHERTVQYLQHLGTENLHLIFSYSVWVLRDFPEDGLKIFTEDLPEVESLPRDRVLGFLIENFKGLAIPYLEHIIHVWEETGSRFHNCLIQLYCEKVQGLMKEYLLSFPAGKTPVPAGEEEGELGEYRQKLLMFLEISSYYDPGRLICDFPFDGLLEERALLLGRMGKHEQALFIYVHILKDTRMAEEYCHKHYDRNKDGNKDVYLSLLRMYLSPPSIHCLGPIKLELLEPKANLQAALQVLELHHSKLDTTKALNLLPANTQINDIRIFLEKVLEENAQKKRFNQVLKNLLHAEFLRVQEERILHQQVKCIITEEKVCMVCKKKIGNSAFARYPNGVVVHYFCSKEVNPADT
2 |  |  |  | binds | binds | HA–Vps39 (HEK293T) (protein, UniProt Q96JC1 1-886) MHDAFEPVPILEKLPLQIDCLAAWEEWLLVGTKQGHLLLYRIRKDVVPADVASPESGSCNRFEVTLEKSNKNFSKKIQQIHVVSQFKILVSLLENNIYVHDLLTFQQITTVSKAKGASLFTCDLQHTETGEEVLRMCVAVKKKLQLYFWKDREFHELQGDFSVPDVPKSMAWCENSICVGFKRDYYLIRVDGKGSIKELFPTGKQLEPLVAPLADGKVAVGQDDLTVVLNEEGICTQKCALNWTDIPVAMEHQPPYIIAVLPRYVEIRTFEPRLLVQSIELQRPRFITSGGSNIIYVASNHFVWRLIPVPMATQIQQLLQDKQFELALQLAEMKDDSDSEKQQQIHHIKNLYAFNLFCQKRFDESMQVFAKLGTDPTHVMGLYPDLLPTDYRKQLQYPNPLPVLSGAELEKAHLALIDYLTQKRSQLVKKLNDSDHQSSTSPLMEGTPTIKSKKKLLQIIDTTLLKCYLHTNVALVAPLLRLENNHCHIEESEHVLKKAHKYSELIILYEKKGLHEKALQVLVDQSKKANSPLKGHERTVQYLQHLGTENLHLIFSYSVWVLRDFPEDGLKIFTEDLPEVESLPRDRVLGFLIENFKGLAIPYLEHIIHVWEETGSRFHNCLIQLYCEKVQGLMKEYLLSFPAGKTPVPAGEEEGELGEYRQKLLMFLEISSYYDPGRLICDFPFDGLLEERALLLGRMGKHEQALFIYVHILKDTRMAEEYCHKHYDRNKDGNKDVYLSLLRMYLSPPSIHCLGPIKLELLEPKANLQAALQVLELHHSKLDTTKALNLLPANTQINDIRIFLEKVLEENAQKKRFNQVLKNLLHAEFLRVQEERILHQQVKCIITEEKVCMVCKKKIGNSAFARYPNGVVVHYFCSKEVNPADT

— publication PMC4432227
